Reference: publication PMC8892744
No constants are given. Whether binding was seen depends on the method and setting. Binding seen in cells or lysates may run through a third protein. A yes stands for co-enrichment or nearness to the bait. Other partners may have been found.

Sequences of proteins named here, by UniProt entry; tags and fusion partners are left off. Residues count along the entry.
UniProt Q96KS9: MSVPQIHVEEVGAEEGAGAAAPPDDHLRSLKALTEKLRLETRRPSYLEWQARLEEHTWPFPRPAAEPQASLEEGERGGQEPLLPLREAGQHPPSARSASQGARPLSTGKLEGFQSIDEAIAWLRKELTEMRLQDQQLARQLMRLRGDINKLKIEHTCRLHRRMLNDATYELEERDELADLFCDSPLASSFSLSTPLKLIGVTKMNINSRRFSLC
UniProt Q02413, residues 50-1049: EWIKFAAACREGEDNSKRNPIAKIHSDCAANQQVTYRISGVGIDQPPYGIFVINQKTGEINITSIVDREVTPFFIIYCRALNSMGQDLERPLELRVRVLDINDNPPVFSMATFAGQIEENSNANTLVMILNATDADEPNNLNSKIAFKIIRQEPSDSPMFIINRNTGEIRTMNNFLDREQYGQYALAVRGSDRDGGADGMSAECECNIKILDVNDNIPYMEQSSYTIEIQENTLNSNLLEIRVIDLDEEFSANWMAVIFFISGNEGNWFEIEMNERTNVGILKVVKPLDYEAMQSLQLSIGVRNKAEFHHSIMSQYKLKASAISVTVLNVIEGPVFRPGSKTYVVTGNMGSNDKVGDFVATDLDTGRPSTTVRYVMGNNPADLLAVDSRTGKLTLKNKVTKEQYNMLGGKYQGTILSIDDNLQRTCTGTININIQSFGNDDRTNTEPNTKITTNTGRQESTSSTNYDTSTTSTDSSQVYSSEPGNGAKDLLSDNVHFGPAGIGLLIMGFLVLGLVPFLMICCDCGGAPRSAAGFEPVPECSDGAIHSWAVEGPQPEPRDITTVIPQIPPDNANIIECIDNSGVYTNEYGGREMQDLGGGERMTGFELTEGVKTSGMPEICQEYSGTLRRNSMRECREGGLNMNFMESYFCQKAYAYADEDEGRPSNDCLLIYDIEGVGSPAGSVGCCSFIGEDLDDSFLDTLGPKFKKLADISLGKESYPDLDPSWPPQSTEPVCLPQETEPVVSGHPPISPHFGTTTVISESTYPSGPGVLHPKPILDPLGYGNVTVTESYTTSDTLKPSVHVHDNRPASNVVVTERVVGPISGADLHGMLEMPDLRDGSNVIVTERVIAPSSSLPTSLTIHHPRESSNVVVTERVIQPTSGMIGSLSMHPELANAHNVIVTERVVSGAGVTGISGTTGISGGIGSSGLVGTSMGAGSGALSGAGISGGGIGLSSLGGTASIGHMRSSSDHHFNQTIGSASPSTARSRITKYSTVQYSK

Molecular target: Myc-tagged recombinant FAM167A (UniProt Q96KS9)
Assay: affinity purification with mass spectrometry; Myc-tagged recombinant FAM167A and anti-Myc antibodies bound to Protein G Sepharose beads used to pull down the receptor from K562R cells; silver staining; bands identified by LC-MS/MS; only the target purified

binding: binds
Substance: desmoglein-1 (DSG1) (from UniProt Q02413 50-1049) (receptor)
